Experimental findings from paper PMC8870177 are described below.

Amino acid sequences for entries named in this document (tags omitted). Residues count along the entry.
UniProt Q13153, residues 67-150: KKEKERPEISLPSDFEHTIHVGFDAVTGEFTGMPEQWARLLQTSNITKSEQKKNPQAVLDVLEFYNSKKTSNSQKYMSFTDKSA
UniProt P60766: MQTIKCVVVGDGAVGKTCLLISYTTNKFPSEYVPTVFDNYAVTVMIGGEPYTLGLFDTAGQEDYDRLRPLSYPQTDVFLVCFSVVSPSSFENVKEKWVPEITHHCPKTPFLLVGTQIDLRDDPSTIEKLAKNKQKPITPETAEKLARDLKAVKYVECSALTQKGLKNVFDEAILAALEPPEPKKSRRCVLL

The assay addresses GST-fused p21-binding domain (PBD) of human PAK1 (aa 67-150) (human) (UniProt Q13153). As to the kind of experiment: pull-down; GST-fused PBD (5 ug) on Glutathione Sepharose 4B beads incubated 30 min at 4 C with lysates of serum-starved transfected COS7 cells (Plek2-WT or Plek2-RW, with or without Gbeta1 and Ggamma2 co-expressed); 50 mM Tris-HCl pH 7.5, 150 mM NaCl, 5 mM MgCl2, 0.1% SDS, 1% Nonidet P-40, 0.5% deoxycholate; bound proteins by Western blot with anti-Myc; only the target purified. (Immunoblotting shows a protein as a band on a membrane.)

No constants are given. Whether binding was seen depends on the method and setting. Binding seen in cells or lysates may run through a third protein. Some binding calls cover weakened binding; strength is not graded here.

With “Myc-tagged mouse Cdc42 (from UniProt P60766 1-191)”, the binding entry is reported as “binds”.
